The list shows a part of the results. The main result of the screen is listed elsewhere. These columns were measured beside it and carry no call. The list favours compounds with an active or inconclusive main result. Words in brackets tell the shape of the fitted curve; partial curves, single points and poor fits give uncertain potencies.
Experiment: qHTS Assay for Lipid Storage Modulators in Drosophila S3 Cells;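 on cell number change: cells counted by Cell Tracker Red CMTPX staining in the red channel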
Details: BODIPY lipid droplet fluorescence, 18-24 h; for cell number change: measured here: cell count max response, cells fed with added oleic acid
Procedure, shortened: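 Drosophila S3 cells got compounds at several concentrations plus oleic acid (400 uM solution). Laser-scanning cytometry with 488 nm excitation read lipid droplets at 500-530 nm and cells at 575-640 nm. Percent activity was relative to 20 uM Triacsin C.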

[1] = measured here: cell number channel AC50, cells fed with added oleic acid
[2] = measured here: lipid fluorescence (Fed channel) AC50, cells fed with added oleic acid

COc1ccc(NC(=S)NNC(=O)C(C)n2nc(C)c([N+](=O)[O-])c2C)cc1 (configuration not stated)
cell number change: 38.4% | AC50 [1]: 8.2 µM [rising, partial curve] | AC50 [2]: 7.31 µM [rising, partial curve]

COc1ccccc1N(C)S(=O)(=O)c1ccc(Cl)c(C(=O)NNC(=O)c2ccccc2O)c1
cell number change: -7.03% | AC50 [2]: 6.51 µM [falling, single point]

COc1ccc(O)c(-c2nc(N)nc(N)n2)c1
cell number change: -22.5% | AC50 [2]: 0.366 µM [rising, single point]

COc1cc(-c2nnc3sc(-c4cccs4)nn23)cc(OC)c1OC
cell number change: -6.56% | AC50 [2]: 0.651 µM [rising, single point]

Nc1ccccc1SCc1cn2ccccc2n1
cell number change: 25.5% | AC50 [2]: 8.2 µM [rising, partial curve]

CC(OC(=O)Cc1coc2ccc3ccccc3c12)C(=O)Nc1ncc(Cl)cc1Cl (configuration not stated)
cell number change: 24.3%

Cc1cc(C(C#N)c2ccccc2)n2ncnc2n1 (configuration not stated)
cell number change: 9.15% | AC50 [1]: 0.731 µM [falling, single point]

CC1CN(c2ccc(NC(=S)NNCCC#N)cc2)CC(C)O1 (configuration not stated)
cell number change: 48.8% | AC50 [1]: 9.2 µM [rising, partial curve] | AC50 [2]: 2.06 µM [rising, full curve]

CC(C)(C)c1ccc(C(=O)Oc2ccc3c(c2)OCC3=O)cc1
cell number change: -39.5% | AC50 [1]: 0.82 µM [falling, full curve] | AC50 [2]: 0.58 µM [falling, full curve]

O=C(NCc1ccc2c(c1)OCO2)C1CCN(S(=O)(=O)c2ccc(Br)s2)CC1
cell number change: 5.75% | AC50 [2]: 9.2 µM [rising, partial curve]

COc1ccc(-c2cc(-c3ccc(OC)c(OC)c3)n[nH]2)c(O)c1
cell number change: -7.6%

CCOC(=O)c1c(C)n(C)c2ccc(OC)c(NC(=O)CN3CCN(C(=O)c4ccco4)CC3)c12
cell number change: -7.22% | AC50 [2]: 0.00461 µM [rising, full curve, poor fit]

CC1CCCCN1CC(=O)Nc1ccc2c(c1)OCO2 (configuration not stated)
cell number change: -5.18% | AC50 [2]: 11.6 µM [rising, partial curve, poor fit]

c1ccc(Nc2ccccc2)cc1
cell number change: 24.5%

Cc1ccc(/C=C/C2=NN(Cc3ccc(Cl)c(Cl)c3)C(=O)CC2)cc1
cell number change: -18.6%

Cc1cccc(-n2ncc3c(N4CCCc5ccccc54)ncnc32)c1
cell number change: 9.87% | AC50 [1]: 2.31 µM [rising, single point] | AC50 [2]: 18.4 µM [rising, partial curve]

COC(=O)Nc1ccc(S(=O)(=O)Nc2ccc(C)cc2)cc1
AC50 [1]: 2.31 µM [rising, single point]

CCCCC(=O)OCc1nc2ccccc2s1
AC50 [2]: 0.116 µM [rising, single point]

CCOc1ccc(CCNC(=O)CS(=O)Cc2nc(-c3ccccc3C)oc2C)cc1OCC (configuration not stated)
cell number change: -5.51%

Cc1ccccc1SCC(=O)Nc1cccc(C#N)c1
cell number change: 9.73% | AC50 [2]: 1.64 µM [rising, partial curve]

O=C(Cn1nnc2ccccc21)Nc1ccc([N+](=O)[O-])cc1
cell number change: 13.5% | AC50 [2]: 4.61 µM [rising, full curve, poor fit]

COc1cc(S(=O)(=O)N2CCC(C(N)=O)CC2)c(C)cc1C
cell number change: -97.8% | AC50 [1]: 1.84 µM [falling, full curve] | AC50 [2]: 6.51 µM [falling, full curve]

Cc1nc2ccccc2c(=O)n1/N=C/c1ccc(C(C)C)cc1
cell number change: -36.4% | AC50 [1]: 29.1 µM [falling, single point]

CC(C)CCn1nnnc1C(c1ccc(F)cc1)N1CCN(C(=O)c2ccco2)CC1 (configuration not stated)
cell number change: -15.9% | AC50 [2]: 20.6 µM [falling, single point]

CCOC(=O)N1CCN(S(=O)(=O)c2ccc3c4c(cccc24)C(=O)N3)CC1
cell number change: -0.0268% | AC50 [2]: 0.0206 µM [falling, full curve, poor fit]

O=C(Cc1cccs1)Nc1ccc(F)cc1F
cell number change: 12.2% | AC50 [2]: 29.1 µM [rising, partial curve, poor fit]

CCOC(=O)CCCn1ncn2c(cc3occc32)c1=O
cell number change: 0.238%

CCOc1ncccc1C(=O)NNC(=O)c1ccccc1-n1cccc1
cell number change: 3.55%

C=CCn1c(=O)c2c(nc3n2CCN3c2cccc(Cl)c2C)n(C)c1=O
cell number change: -6.53%

Nc1ccc(SC(F)(F)F)cc1
cell number change: 22.9% | AC50 [1]: 3.66 µM [falling, single point]

O=C(Nc1ccc(F)c([N+](=O)[O-])c1)C(=O)c1c(O)[nH]c2ccccc12
cell number change: 0.721%

CCN(CC)c1ccc(S(=O)(=O)N2CCOCC2)cc1NC(=O)COC(=O)/C=C/c1ccc(C)o1
AC50 [1]: 0.731 µM [falling, single point]

Cc1cccc(C)c1NC(=O)CCc1nnc2ccc(N3CCCC3)nn12
cell number change: -13.9%

C/C(Cn1cnc([N+](=O)[O-])n1)=N\NC(=O)c1cccnc1
cell number change: 20% | AC50 [2]: 29.1 µM [rising, single point]

Cc1ccc(NC(=O)c2sc(N)nc2-c2ccccc2)cc1C
AC50 [2]: 0.00517 µM [falling, full curve, poor fit]

COc1ccc(NCc2nc3ccccc3n2CCOc2ccc(C)cc2)cc1
cell number change: -46.6% | AC50 [1]: 23.1 µM [falling, partial curve] | AC50 [2]: 3.26 µM [rising, partial curve]

COc1ccc(C(=O)/C=C/C(=O)N(Cc2ccc3c(c2)OCO3)C(C(=O)NC2CCCCC2)c2ccncc2)c(O)c1 (configuration not stated)
cell number change: -3.37% | AC50 [2]: 29.1 µM [falling, single point]

NC(=O)COc1ccc(C(=O)/C=C2/C(=O)Nc3ccccc32)cc1
cell number change: -63.8% | AC50 [1]: 29.1 µM [falling, single point]

O=C(Nc1nnc(SCC(=O)N2CCCC2)s1)C1CC(=O)N(c2ccccc2)C1 (configuration not stated)
cell number change: 8.01%

CCN(c1ccccc1)S(=O)(=O)c1ccc(Cl)c(C(=O)OCC(=O)c2[nH]c(C)c(C(C)=O)c2C)c1
AC50 [2]: 16.4 µM [rising, partial curve, poor fit]

COc1ccc(C)cc1NS(=O)(=O)c1ccc(NS(=O)(=O)c2ccc(NC(C)=O)cc2)cc1
AC50 [1]: 0.58 µM [rising, single point] | AC50 [2]: 0.58 µM [rising, single point]

O=S(=O)(O)c1ccc(N2N=C(c3ccccc3)CC2c2ccccc2)cc1 (configuration not stated)
cell number change: 55.8% | AC50 [1]: 29.1 µM [rising, single point] | AC50 [2]: 3.66 µM [rising, full curve]

COC(=O)c1c(NC(=O)CN2CCCC(C)C2)c2c(C)cccc2n1C (configuration not stated)
AC50 [2]: 7.31 µM [falling, partial curve]

CCCOc1ccc(C2C(C(=O)c3cc4ccccc4o3)=C(O)C(=O)N2c2cc(C)on2)cc1OC (configuration not stated)
AC50 [2]: 29.1 µM [rising, single point]

O=C(C1COc2ccccc2O1)N1CCN(S(=O)(=O)c2cc(F)ccc2F)CC1 (configuration not stated)
cell number change: -18.5% | AC50 [2]: 29.1 µM [rising, single point]

COC(=O)[C@@]12CCCCN1[C@H](c1ccc(-c3ccc(C(C)=O)cc3)cc1)[C@H]1C(=O)N(C)C(=O)[C@H]12
cell number change: 13.1%

COc1ccc(C(=O)NC(CCSC)C(=O)N2CCCCCC2)cc1 (configuration not stated)
cell number change: -4.76% | AC50 [1]: 2.31 µM [rising, single point] | AC50 [2]: 6.51 µM [falling, partial curve]

O=C(Cc1cccc(C(F)(F)F)c1)Nc1cccc(S(=O)(=O)N2CCCC2)c1
cell number change: 42.2% | AC50 [1]: 20 µM [rising, partial curve] | AC50 [2]: 6.31 µM [rising, single point]

CN(Cc1cccc(F)c1)C(=O)CSc1nnnn1C1CC1
AC50 [2]: 2.06 µM [rising, partial curve]

Nc1ccc(Oc2ccc3nc(-c4ccccc4)c(-c4ccccc4)nc3c2)cc1
cell number change: -17% | AC50 [2]: 1.84 µM [falling, single point]

CC(C)n1cc(NC(=O)c2cc(-c3ccccc3)on2)cn1
cell number change: 71.9% | AC50 [1]: 1.3 µM [rising, full curve] | AC50 [2]: 1.84 µM [rising, partial curve]

O=C(CCc1ccccc1)Nc1ccc2c(c1)OCCO2
cell number change: -5.91%

Cc1ccc(OCC(=O)OC(C)CN2CCCCC2)cc1 (configuration not stated)
cell number change: 9.79%

COc1ccccc1NC(=O)C1=C(C)NC2=C(C(=O)CC(c3ccc(OC)c(OC)c3)C2)C1c1coc2ccccc2c1=O (configuration not stated)
cell number change: -4% | AC50 [2]: 32.6 µM [falling, single point]

O=C(c1cc(C2CC2)on1)N1CCOCC1
cell number change: 12.4% | AC50 [2]: 6.51 µM [rising, single point]

O=C(Nc1ccccc1N1CCOCC1)c1cccc([N+](=O)[O-])c1
cell number change: -83.3% | AC50 [1]: 7.31 µM [falling, partial curve, poor fit]

CCOc1ccccc1N(CC(=O)NCC1CCCO1)C(=O)CCC(=O)Nc1nccs1 (configuration not stated)
cell number change: -16.7% | AC50 [2]: 29.1 µM [rising, single point]

CC(NC(=O)c1ccc(CS(C)(=O)=O)cc1)c1ccc(-n2ccnc2)cc1 (configuration not stated)
AC50 [2]: 29.1 µM [rising, single point]

N#Cc1ccccc1CSc1nc(N2CCCCC2)nc(N2CCCCC2)n1
AC50 [1]: 2.91 µM [rising, partial curve] | AC50 [2]: 4.61 µM [rising, partial curve]

CC(=O)Nc1cccc(C(=O)NC2CCCc3c2cnn3-c2cc(C)cc(C)c2)c1 (configuration not stated)
cell number change: -47.5% | AC50 [1]: 7.31 µM [falling, partial curve] | AC50 [2]: 0.731 µM [falling, full curve]

CCc1nn(CC(=O)NCCCN2CCOCC2)c(=O)c2cc3cc(F)ccc3n12
cell number change: -7.95% | AC50 [2]: 29.1 µM [rising, single point]

N#C/C(=C\c1ccc(OCc2ccc(C(=O)O)cc2)cc1)C(=O)N1CCOCC1
cell number change: 1.02% | AC50 [2]: 29.1 µM [falling, single point]
